Data: PMC7795690
Where a chain is given by its changes, count along the chain named. Results are given in words; binding and its absence hold for the method and conditions named. In cells and extracts the contact can be indirect. Some entries that bind do so weakly or less than the wild type. Blank lines part the entries; values can stand above or below the substance they belong to.

Chains of the proteins cited; added tags and fusions are not shown.
UniProt Q9Y266: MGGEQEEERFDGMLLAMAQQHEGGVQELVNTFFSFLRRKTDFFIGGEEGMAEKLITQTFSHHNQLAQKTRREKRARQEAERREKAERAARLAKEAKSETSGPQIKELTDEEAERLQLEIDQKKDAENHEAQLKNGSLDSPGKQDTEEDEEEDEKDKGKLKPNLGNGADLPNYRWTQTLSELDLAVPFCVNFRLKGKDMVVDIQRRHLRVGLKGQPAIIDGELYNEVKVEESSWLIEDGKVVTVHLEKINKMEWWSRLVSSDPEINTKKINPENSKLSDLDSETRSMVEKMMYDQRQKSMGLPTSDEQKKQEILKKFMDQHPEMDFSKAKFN
UniProt Q9NP97: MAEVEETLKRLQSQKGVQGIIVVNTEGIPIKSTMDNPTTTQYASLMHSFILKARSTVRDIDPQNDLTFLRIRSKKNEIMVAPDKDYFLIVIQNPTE
UniProt P62628: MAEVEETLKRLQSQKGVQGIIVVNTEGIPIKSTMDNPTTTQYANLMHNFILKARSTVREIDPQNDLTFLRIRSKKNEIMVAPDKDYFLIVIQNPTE
UniProt Q63525: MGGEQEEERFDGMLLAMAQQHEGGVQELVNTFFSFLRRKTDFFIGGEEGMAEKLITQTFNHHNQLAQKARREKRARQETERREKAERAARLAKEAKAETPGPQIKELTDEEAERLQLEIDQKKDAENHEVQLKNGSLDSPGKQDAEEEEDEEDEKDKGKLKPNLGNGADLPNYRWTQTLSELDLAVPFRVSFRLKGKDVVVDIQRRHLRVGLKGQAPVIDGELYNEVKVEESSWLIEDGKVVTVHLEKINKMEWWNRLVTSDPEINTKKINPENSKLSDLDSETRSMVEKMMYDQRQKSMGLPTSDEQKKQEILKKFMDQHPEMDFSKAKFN
UniProt Q9UJ70: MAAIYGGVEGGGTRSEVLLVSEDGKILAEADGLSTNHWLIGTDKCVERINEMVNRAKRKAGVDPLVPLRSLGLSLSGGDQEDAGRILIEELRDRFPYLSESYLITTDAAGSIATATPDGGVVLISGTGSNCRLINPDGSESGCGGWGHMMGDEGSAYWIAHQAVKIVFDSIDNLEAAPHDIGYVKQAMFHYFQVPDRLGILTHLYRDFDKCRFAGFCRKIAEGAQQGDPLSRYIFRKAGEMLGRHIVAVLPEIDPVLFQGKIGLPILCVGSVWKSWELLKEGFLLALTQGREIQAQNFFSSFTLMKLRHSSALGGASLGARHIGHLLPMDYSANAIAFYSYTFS
UniProt P81799: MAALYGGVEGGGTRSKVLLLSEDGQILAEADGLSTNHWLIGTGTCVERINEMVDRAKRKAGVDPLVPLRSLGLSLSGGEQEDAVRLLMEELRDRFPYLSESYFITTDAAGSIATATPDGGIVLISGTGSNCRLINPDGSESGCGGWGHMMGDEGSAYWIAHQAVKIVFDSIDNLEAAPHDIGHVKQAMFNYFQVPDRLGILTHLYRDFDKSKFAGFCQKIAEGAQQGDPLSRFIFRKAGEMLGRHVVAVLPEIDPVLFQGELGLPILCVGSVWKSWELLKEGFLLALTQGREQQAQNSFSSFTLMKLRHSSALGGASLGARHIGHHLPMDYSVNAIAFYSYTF
UniProt Q9Y6G9: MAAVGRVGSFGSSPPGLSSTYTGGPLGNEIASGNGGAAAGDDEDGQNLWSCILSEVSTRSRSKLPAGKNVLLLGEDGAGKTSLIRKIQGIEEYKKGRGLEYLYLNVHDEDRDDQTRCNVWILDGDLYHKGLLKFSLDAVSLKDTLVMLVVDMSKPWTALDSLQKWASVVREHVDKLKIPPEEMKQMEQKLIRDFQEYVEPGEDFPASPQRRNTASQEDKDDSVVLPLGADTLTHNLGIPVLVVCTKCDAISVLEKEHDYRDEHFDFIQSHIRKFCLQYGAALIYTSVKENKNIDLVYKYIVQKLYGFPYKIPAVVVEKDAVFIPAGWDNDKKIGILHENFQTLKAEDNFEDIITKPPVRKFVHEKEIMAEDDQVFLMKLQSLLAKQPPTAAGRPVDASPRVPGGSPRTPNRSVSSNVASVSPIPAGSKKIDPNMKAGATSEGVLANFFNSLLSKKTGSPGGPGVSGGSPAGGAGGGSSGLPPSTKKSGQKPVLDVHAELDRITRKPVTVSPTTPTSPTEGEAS

How the values were obtained:
His-tagged NudC = His-tagged NudC (UniProt Q9Y266); test: pull-down; Ni-NTA magnetic resin pull-down of His-tagged NudC from lysate of transfected HEK293T cells (48 h; 25 mM Tris, 150 mM NaCl, 1.0 mM EDTA, 1% NP-40, 5% glycerol, pH 7.4); immunoblot of the elution
[1] = molecular target: dynein light chain roadblock type 1 (DYNLRB1), endogenous in HEK293T cells (human (endogenous in HEK293T)) (UniProt Q9NP97); test: proximity ligation; in situ PLA (Duolink) with primary antibodies to the two endogenous proteins in fixed migrating HEK293T cells (wound-healing, 48 h post-scratching), followed by ICC for a third protein
[2] = molecular target: T1, lissencephaly 1 (Lis1), endogenous in HEK293T cells (human (endogenous in HEK293T)) (UniProt P43034); test: as above
T1 sequence: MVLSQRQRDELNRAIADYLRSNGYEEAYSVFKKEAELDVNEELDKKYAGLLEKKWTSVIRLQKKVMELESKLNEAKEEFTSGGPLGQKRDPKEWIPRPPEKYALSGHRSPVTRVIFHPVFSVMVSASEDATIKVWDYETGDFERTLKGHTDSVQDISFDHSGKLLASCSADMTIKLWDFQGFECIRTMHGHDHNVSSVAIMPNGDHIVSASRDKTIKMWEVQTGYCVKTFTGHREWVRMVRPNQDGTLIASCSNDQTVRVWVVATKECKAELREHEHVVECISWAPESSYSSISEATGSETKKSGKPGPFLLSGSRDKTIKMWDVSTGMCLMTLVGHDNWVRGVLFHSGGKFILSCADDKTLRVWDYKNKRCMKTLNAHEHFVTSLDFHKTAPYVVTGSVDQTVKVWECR

[3] = molecular target: nuclear distribution protein C (NudC), endogenous in HEK293T cells (human (endogenous in HEK293T)) (UniProt Q9Y266); test: as above
[4] = molecular target: T2, lissencephaly 1 (Lis1), endogenous in rat migrating neurons (rat (endogenous in neurons from E14 rat cortex)) (UniProt P63004); test: proximity ligation; in situ PLA (Duolink) with primary antibodies to the two endogenous proteins in fixed cultured rat neurons migrating from E14 neurospheres, followed by ICC for a third protein
T2 sequence: T1 sequence with V39M

[5] = molecular target: dynein light chain roadblock type 1 (DYNLRB1), endogenous in rat migrating neurons (rat (endogenous in neurons from E14 rat cortex)) (UniProt P62628); test: as above
[6] = molecular target: nuclear distribution protein C (NudC), endogenous in rat migrating neurons (rat (endogenous in neurons from E14 rat cortex)) (UniProt Q63525); test: as above

- binding (His-tagged NudC): binds
- binding [1]: binds
- binding [2]: binds
- binding [3]: binds
Substance: N-acetylglucosamine kinase (NAGK), endogenous in HEK293T cells (from UniProt Q9UJ70 1-344)

- binding [4]: binds
- binding [5]: binds
- binding [6]: binds
Substance: N-acetylglucosamine kinase (NAGK), endogenous in rat migrating neurons (from UniProt P81799 1-343)

- binding (His-tagged NudC): binds
Substance: dynein light chain roadblock type 1 (DYNLRB1), endogenous in HEK293T cells (from UniProt Q9NP97 1-96)

- binding (His-tagged NudC): binds
Substance: dynein light intermediate chain 1 (DYNC1LI1), endogenous in HEK293T cells (from UniProt Q9Y6G9 1-523)
